This is an account of results in patent US20220249404A1, “COMPOSITION CONTAINING FLUOXETINE AND VITAMIN D3 OR ITS DERIVATIVES, AND APPLICATION THEREOF” (Nanjing Ruiying Runze Biopharmaceutical Technology Co., Inc., priority 2019, published 2022).

This assay concerns zebrafish. Description: survival rate of zebrafish (PTU35h embryos, drugs alone or in combination). The following applies: Danio rerio, 25 h, read-out: IC50 (survival rate of zebrafish).

On to `CNCCC(Oc1ccc(C(F)(F)F)cc1)c1ccccc1` (racemic) [fluoxetine], for which the IC50 (in general, the concentration needed to halve the response being measured) is 89.7 µg/mL.
